Holding throughout (test): co-IP; ES cell extracts (ZHBTc4; lysis buffer 200 mM NaCl, 50 mM Tris-HCl pH 8.0, 0.5% NP40), about 20 mg extract immunoprecipitated overnight with 2 ug control IgG, anti-Oct4, anti-Nanog or anti-Pontin antibody, protein A agarose, washes with 150 mM NaCl; immunoblot; endogenous proteins …
A general note: Immunoblotting shows a protein as a band on a membrane.

By UniProt entry, the sequences of proteins in these tests, tags left out.
UniProt P20263: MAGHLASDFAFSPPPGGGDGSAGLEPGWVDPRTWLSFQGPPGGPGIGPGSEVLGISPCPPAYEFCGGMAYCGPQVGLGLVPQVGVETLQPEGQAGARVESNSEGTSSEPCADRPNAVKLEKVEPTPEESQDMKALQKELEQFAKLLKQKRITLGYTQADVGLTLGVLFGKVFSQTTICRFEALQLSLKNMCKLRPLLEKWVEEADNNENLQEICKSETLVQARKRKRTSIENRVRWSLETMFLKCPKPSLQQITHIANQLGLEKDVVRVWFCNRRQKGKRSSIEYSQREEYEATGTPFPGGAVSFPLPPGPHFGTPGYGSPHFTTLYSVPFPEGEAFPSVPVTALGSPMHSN
UniProt B2RWS6: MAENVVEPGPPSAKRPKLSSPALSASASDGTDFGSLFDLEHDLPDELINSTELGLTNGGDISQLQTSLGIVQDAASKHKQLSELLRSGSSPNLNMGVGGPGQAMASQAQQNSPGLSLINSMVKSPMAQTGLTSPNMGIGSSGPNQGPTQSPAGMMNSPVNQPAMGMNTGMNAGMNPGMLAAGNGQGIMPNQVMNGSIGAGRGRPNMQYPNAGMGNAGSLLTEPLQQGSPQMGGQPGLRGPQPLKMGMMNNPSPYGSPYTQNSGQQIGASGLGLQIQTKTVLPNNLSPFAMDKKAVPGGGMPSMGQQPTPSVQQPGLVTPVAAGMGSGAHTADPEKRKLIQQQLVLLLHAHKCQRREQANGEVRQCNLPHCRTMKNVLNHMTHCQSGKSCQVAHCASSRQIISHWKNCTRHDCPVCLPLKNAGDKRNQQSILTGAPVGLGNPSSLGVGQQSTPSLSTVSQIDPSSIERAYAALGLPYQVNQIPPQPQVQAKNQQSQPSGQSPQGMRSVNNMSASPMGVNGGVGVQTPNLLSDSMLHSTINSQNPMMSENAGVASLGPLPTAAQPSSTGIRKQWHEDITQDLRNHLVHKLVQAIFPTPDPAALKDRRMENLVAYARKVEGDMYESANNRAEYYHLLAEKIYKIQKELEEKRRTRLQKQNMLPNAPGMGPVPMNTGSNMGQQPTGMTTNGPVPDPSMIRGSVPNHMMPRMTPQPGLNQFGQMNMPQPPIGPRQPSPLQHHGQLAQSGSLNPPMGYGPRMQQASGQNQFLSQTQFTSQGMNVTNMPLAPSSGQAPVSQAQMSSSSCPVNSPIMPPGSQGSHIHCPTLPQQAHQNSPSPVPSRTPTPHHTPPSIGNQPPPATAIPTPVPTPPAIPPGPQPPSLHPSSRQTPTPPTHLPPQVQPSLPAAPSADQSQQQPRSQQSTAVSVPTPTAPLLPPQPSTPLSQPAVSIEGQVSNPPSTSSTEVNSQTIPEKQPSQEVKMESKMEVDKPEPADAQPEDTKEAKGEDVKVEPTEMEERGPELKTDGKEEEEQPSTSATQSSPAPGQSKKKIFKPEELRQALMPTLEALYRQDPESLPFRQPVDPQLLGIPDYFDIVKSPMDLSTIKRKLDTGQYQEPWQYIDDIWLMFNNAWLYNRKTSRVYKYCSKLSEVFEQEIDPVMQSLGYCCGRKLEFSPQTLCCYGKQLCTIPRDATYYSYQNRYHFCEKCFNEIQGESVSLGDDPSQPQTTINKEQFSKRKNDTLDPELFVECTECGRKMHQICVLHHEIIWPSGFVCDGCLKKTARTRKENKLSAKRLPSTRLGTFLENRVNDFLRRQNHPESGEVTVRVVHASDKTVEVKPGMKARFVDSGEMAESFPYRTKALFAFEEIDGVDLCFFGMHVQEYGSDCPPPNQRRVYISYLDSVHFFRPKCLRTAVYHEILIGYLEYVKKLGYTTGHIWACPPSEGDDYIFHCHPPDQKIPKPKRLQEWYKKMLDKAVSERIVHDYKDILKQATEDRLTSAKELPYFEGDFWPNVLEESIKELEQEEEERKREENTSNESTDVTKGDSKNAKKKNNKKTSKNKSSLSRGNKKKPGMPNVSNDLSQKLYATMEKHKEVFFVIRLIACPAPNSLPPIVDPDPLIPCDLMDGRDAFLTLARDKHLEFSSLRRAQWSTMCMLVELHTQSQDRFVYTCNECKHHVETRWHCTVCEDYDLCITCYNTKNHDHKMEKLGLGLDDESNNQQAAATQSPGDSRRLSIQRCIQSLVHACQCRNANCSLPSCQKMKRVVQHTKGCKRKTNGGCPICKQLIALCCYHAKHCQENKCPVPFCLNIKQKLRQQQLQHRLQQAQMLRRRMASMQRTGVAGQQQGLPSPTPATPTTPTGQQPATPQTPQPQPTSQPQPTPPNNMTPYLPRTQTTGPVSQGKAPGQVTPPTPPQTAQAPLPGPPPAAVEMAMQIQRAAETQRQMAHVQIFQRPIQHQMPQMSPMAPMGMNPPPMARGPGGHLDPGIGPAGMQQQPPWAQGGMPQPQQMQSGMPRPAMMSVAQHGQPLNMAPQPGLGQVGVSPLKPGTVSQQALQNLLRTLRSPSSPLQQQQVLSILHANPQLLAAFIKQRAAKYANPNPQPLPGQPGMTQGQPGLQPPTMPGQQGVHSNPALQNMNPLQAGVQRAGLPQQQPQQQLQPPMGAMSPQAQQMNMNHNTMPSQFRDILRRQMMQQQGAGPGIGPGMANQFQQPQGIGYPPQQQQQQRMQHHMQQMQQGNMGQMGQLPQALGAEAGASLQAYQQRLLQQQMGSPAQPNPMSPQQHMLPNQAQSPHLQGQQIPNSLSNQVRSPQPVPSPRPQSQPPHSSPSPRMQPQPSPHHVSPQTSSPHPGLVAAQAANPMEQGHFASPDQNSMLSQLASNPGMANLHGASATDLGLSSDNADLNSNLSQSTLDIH
UniProt P60122: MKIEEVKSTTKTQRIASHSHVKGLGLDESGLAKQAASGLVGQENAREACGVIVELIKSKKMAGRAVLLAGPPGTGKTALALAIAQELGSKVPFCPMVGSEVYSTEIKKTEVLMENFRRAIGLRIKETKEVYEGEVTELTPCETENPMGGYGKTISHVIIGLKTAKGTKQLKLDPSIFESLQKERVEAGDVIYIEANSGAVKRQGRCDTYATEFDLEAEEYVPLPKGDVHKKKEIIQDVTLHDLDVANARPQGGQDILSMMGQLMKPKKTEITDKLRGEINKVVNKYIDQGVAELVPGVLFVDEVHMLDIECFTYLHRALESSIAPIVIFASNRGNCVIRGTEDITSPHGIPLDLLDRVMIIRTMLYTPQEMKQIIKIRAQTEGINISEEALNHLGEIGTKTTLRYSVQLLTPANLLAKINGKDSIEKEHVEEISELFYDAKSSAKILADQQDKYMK

The target in assay [1] is T1, Nanog (mouse (endogenous in ZHBTc4 ES cells)) (UniProt Q80Z64).
T1 sequence: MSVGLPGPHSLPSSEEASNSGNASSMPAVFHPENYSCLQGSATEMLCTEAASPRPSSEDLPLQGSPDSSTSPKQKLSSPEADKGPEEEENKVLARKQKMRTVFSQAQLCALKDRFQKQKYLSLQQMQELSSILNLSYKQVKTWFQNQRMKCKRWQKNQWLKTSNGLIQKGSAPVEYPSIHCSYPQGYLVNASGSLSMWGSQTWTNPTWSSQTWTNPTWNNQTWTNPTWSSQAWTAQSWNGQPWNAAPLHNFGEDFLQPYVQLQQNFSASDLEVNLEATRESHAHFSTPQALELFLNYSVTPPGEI

Assay [2] addresses Oct4 (mouse (endogenous in ZHBTc4 ES cells)) (UniProt P20263).
Assay [3] deals with p300 (mouse (endogenous in ES cells)) (UniProt B2RWS6).

These are yes or no findings as the source states them, for the method shown. In cells and extracts the contact can be indirect. Some results given as binding are weak or reduced against the parent protein; the word gives no strength.

For Pontin (from UniProt P60122 1-456), the binding entry in assay [1] is “no binding”; in assay [2] it was “binds”; in assay [3], “binds”.

Source of the values: paper PMC4403444.
